Measurements taken from patent publication US20190300618A1 (Merck Sharp & Dohme, published 2019).
No constants are given. Whether binding was seen depends on the method and setting. Some binding calls cover weakened binding; strength is not graded here.

Protein sequences, listed by entry. Tags and fused reporters are not part of them. Lines headed by an entry give the natural chain unless they say otherwise; changes in a name come on top.
UniProt P26842: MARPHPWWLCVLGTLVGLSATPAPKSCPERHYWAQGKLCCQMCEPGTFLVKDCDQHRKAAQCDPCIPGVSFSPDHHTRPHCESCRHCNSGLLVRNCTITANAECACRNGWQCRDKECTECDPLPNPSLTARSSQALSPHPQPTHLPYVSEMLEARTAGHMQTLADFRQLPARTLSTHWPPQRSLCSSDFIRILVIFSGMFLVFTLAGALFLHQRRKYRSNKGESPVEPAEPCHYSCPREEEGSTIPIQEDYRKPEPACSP

Target: human CD27 (wild type), expressed on cells (human) (UniProt P26842)
Assay: flow cytometry, transiently transfected CHO-K1

- binding: binds
B1: chimeric hCD27.15-c4 (antibody, human IgG4 S228P, kappa, V domains shown)
VH: EVRLQQSGADLVKPGASVKLSCTASGFIIKATYMHWVRQRPEQGLEWIGRIDPANGETKYDPKFQVKATITADTSSSTAYLQLNSLTSDDTAVYYCARYAWYFDVWGAGTTVTVSS
VL: DIQMTQSPASLSASVGDTVTITCRASENIYSFLAWYHQKQGRSPQLLVYHAKTLAEGVPSRFSGSGSGTQFSLKINSLQAEDFGSYYCQHYYGSPLTFGAGTKLEVKR
